# Paper PMC5442318, “Hundreds of dual-stage antimalarial molecules discovered by a functional gametocyte screen” (Nature Communications, 2017)
# System: HepG2 cells
# Assay: HepG2 cytotoxicity assay
# Assay type: cell-based
# Conditions: HepG2 TOX50 / Pf FGAA IC50
# Outline: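 Luminescent read-out (CellTiter-Glo) taken 10 min after reagent addition at RT; plates and reagent pre-equilibrated 30 min at RT.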
row,SMILES,Selectivity ratio
1,CCn1c2ccccc2c2cc(C=NN=c3cc(C)[nH]c4ccccc34)ccc21 [TCMDC-142186],1.40
2,CN(C)CCN1CCN(CCCN2c3ccccc3Sc3ccc(C(F)(F)F)cc32)CC1.Cl [TCMDC-142257],14.77
3,CC(C)(CNC(=O)[C@@H]1CCCCN1)c1nc(-c2ccc(Cl)c(O)c2)c(-c2ccncc2)[nH]1.Cl [TCMDC-141079],24.69
4,CC(C)(CNC(=O)[C@H]1CCCN1)c1nc(-c2ccc(Cl)c(O)c2)c(-c2ccncc2)[nH]1.Cl [TCMDC-141060],27.10
5,CCOc1ccc2c(=NN=Cc3cc(OC)c(OC)cc3OC)cc(C)[nH]c2c1 [TCMDC-142207],9.97

# Same assay, conditions: HepG2 TOX50 versus Pf FGAA IC50
row,SMILES,Selectivity ratio
1,C[C@H](Cc1ccc(OCCCCCCOc2ccc(C[C@@H](C)N[C@H](C)c3ccccc3)cc2)cc1)NC[C@H](O)c1cccc(Cl)c1.Cl [TCMDC-131564],5.97
2,Cl.c1ccc2c(NCCCCCCCCCNc3c4ccccc4nc4ccccc34)c3ccccc3nc2c1 [TCMDC-124286],2.73
3,Cc1cc(Nc2ncc(C#N)c(Nc3ccccc3C(N)=O)n2)ccc1N1CCN(C)CC1.Cl [TCMDC-134115],0.24
4,FC(F)(F)c1ccc2[nH]c(-c3ccc(-c4cccc(CN5CCC(CCN6CCCCC6)CC5)c4)cc3)nc2c1.O=C(O)C(F)(F)F [TCMDC-133941],3.54
5,CCN(CC)CCCn1c(N)c(-c2nc3ccccc3[nH]2)c2nc(C#N)c(C#N)nc21 [TCMDC-123680],5.79
6,Fc1ccc(OC2CN(c3nccc(NCc4ccccc4Cl)n3)C2)cc1 [TCMDC-135110],15.99
7,FC(F)(F)c1ccc2[nH]c(-c3ccc(-c4ccc(CNCCN5CCNCC5)cc4)s3)nc2c1.O=C(O)C(F)(F)F [TCMDC-132862],4.30
8,Oc1c(C(Nc2ccccn2)c2ccc(Cl)cc2Cl)ccc2cccnc12 (stereo not shown) [TCMDC-125559],11.16
9,N#Cc1ccc(-c2ccc(C(=O)NCC3CCN(CCN4CCC(c5ccc6c(c5OCC(N)=O)CCCC6)CC4)CC3)cc2)cc1 [TCMDC-134563],4.88
10,O=C(Nc1cc(C(F)(F)F)cc(C(F)(F)F)c1)Nc1ccc(Cl)c(Cl)c1 [TCMDC-125592],2.15
11,FC(F)(F)c1ccc2[nH]c(-c3cccc(-c4ccc(CNCCN5CCNCC5)cc4)c3)nc2c1.O=C(O)C(F)(F)F [TCMDC-132872],4.93
12,Cc1sc2ncnc(Sc3nnc(N)s3)c2c1C [TCMDC-124542],47.05
13,CC(C)N1CCN(C(CN2CCN(CCCOc3ccc(-c4ccccc4)cc3)CC2)c2ccc(F)cc2)CC1.Cl (stereo not shown) [TCMDC-135497],1.62
14,Cc1ccc(-n2c(Sc3ncnc4sccc34)nnc2N2CCCC2)cc1 [TCMDC-125247],181.00
15,Cc1ccc(C(C(=O)Nc2ccc(N3CCNCC3)c(Cl)c2)c2ccccc2)cc1 (stereo not shown) [TCMDC-134292],18.11
16,COc1ccc(CNC2Cc3ccccc3C2)cc1-c1ccc(S(=O)(=O)NCCN2CCCC2)s1.O=C(O)C(F)(F)F [TCMDC-132258],3.82

row,SMILES,Selectivity ratio
1,CCc1c(CCNCCCCCCNC(C)Cc2ccc3c(c2CC)OCO3)ccc(OC)c1OC.Cl (stereo not shown) [TCMDC-132052],5.11
2,Cc1ccc2c(c1)c(C1CCN(C(=O)c3ccc([N+](=O)[O-])o3)CC1)cn2C [TCMDC-124787],13.60
3,Cc1c2ccncc2c(C)c2c1[nH]c1cc(Cc3ccccc3)c(O)cc12 [TCMDC-132053],1.13
4,Cc1occc1C(=O)Nc1nc(-c2ccccn2)nc2ccsc12 [TCMDC-135244],">1,666.67"
5,FC(F)(F)c1ccc2[nH]c(-c3ccc(-c4ccc(CNCCN5CCNCC5)cc4)cc3)nc2c1.O=C(O)C(F)(F)F [TCMDC-132865],11.65
6,c1ccn2c(Sc3ncnc4sccc34)ncc2c1 [TCMDC-124602],>416.67
7,Br.CCc1c(CCNCCCCCCNCCc2ccc(Br)cc2)ccc(O)c1O [TCMDC-132044],6.15
8,Cc1cc(I)ccc1Nc1nc2nonc2nc1Nc1ccc(I)cc1C [TCMDC-124083],0.86
9,O=C(NCC1CCN(Cc2cccc(C(F)(F)F)c2)C1)c1cc(-c2cccc(C(F)(F)F)c2)cs1.O=C(O)C(F)(F)F (stereo not shown) [TCMDC-134483],9.83
10,Cc1c(Cl)cccc1N=C(S)NN=Cc1ccccn1 [TCMDC-125487],">3,333.33"
11,Br.Oc1ccc(CCNCCCCCCNCCc2ccc(Cl)c3ccccc23)cc1O [TCMDC-131271],4.72
12,CC(C)(C)c1ccc(CN2CCC(CNC(=O)c3cc(-c4cccc(Cl)c4)cs3)C2)cc1.O=C(O)C(F)(F)F (stereo not shown) [TCMDC-134446],7.50
13,O=C(Nc1nc(-c2ccccn2)cs1)c1ccc(Br)s1 [TCMDC-123868],32.14
14,O=C(NCC1CCN(Cc2cccc(C(F)(F)F)c2)C1)c1cc(-c2cccc(Cl)c2)cs1.O=C(O)C(F)(F)F (stereo not shown) [TCMDC-134485],18.01
15,COc1ccccc1CNc1ccnc(N2CC(Oc3ccc(F)cc3)C2)n1 [TCMDC-135118],18.10

# Same assay, conditions: HepG2 TOX50 vs Pf FGAA IC50
row,SMILES,Selectivity ratio
1,CC(C)(C)c1ccc(CNC(=O)c2cc(CNC3CCNCC3)ccc2O)cc1 [TCMDC-140775],6.99
2,COc1ccccc1-c1nc2c(ccc3nc(N)nc(N)c32)[nH]1 [TCMDC-137976],2.53
3,Fc1cc(Cl)ccc1Nc1ccnc2cc(-c3ccc(CN4CCOCC4)o3)ccc12 [TCMDC-138393],8.82
4,Cc1ccc(C(=O)Nc2ccc(Nc3ccnc4cc(-c5ccccn5)ccc34)cc2O)cc1.Cl [TCMDC-138205],2.35
5,CN(C)CCOc1ccc(NC(=O)NC(C)(C)c2nc(-c3ccc(Cl)c(O)c3)c(-c3ccncc3)[nH]2)cc1.Cl [TCMDC-140744],19.59
6,Cc1cc(C(F)(F)F)cc(-n2ncc(-c3ccc(C(=O)NCc4ccccc4N)cc3)c2N)n1.O=C(O)C(F)(F)F [TCMDC-136658],18.37
7,COc1ccc(NC(=O)c2ccc(OCCCCCCCOc3ccc(C(=O)Nc4ccc(OC)c(N5CCN(C)CC5)c4)cc3)cc2)cc1N1CCN(C)CC1.O=C(O)C(=O)O [TCMDC-139007],3.14
8,COc1ccc2cc(CNCCCCCCNCc3ccc4cc(OC)ccc4c3)ccc2c1.CS(=O)(=O)O [TCMDC-137797],2.64
9,O=C(Nc1ccc(-c2ccccc2)c(OCCN2CCNCC2)c1)c1ccc(-c2ccc(Cl)cc2)cc1 [TCMDC-138818],3.60
10,COc1cc2nc(N3CCC(CNC(=O)c4ccc(-c5ccc(Cl)cc5)cc4)CC3)nc(N)c2cc1OC [TCMDC-138718],4.74
11,COC(=O)c1ccc(-c2ccc(-c3cccnc3)cc2C)cc1 [TCMDC-139074],6.20
12,COC(=O)c1ccc(-c2ccc(C(=O)NCC3CCN(c4nc(N)c5cc(OC)c(OC)cc5n4)CC3)cc2)cc1 [TCMDC-138721],6.71
13,Clc1ccc(Nc2nc3ccc(Cl)cc3nc2Nc2ccc(Cl)cc2)cc1 [TCMDC-137772],4.11
14,CC(CCCCCC(=O)Nc1ccc(CC(C)NCCc2cccc(Cl)c2)cc1)NCCc1cccc(Cl)c1 (stereo not shown) [TCMDC-139800],1.83
15,CCCOc1ccc2ccccc2c1CNCCCCCCNCc1c(OCCC)ccc2ccccc12.CS(=O)(=O)O [TCMDC-137966],1.93
16,C=CCOc1ccc2ccccc2c1CNCCCCCCNCc1c(OCC=C)ccc2ccccc12.CS(=O)(=O)O [TCMDC-137340],2.75
17,Cc1cc2nc(N=C3NC4(c5ccccn5)NC(=Nc5nc6cc(C)c(C)cc6[nH]5)NC4(c4ccccn4)N3)[nH]c2cc1C.O=C(O)C(F)(F)F (stereo not shown) [TCMDC-139105],6.73

row,SMILES,Selectivity ratio
1,COc1ccc(NC(=O)c2cccc(Br)c2)cc1N1CCN(CCCCCCCN2CCN(c3cc(NC(=O)c4cccc(Br)c4)ccc3OC)CC2)CC1.Cl [TCMDC-139020],5.68
2,c1ccc(-c2nc(Nc3nc4ccccc4[nH]3)[nH]c2-c2ccccc2)cc1 [TCMDC-139099],18.85
3,CN1CCN(CCCN(Cc2cccc(-c3ccc(CNC4CCCC4)cc3)c2)C(=O)/C=C/c2ccccc2)CC1.O=C(O)C(F)(F)F [TCMDC-140544],5.67
4,CC(Cc1ccc(OCCCCOc2ccccc2)cc1)NCCC1CCCN1C (stereo not shown) [TCMDC-140017],5.62
5,N=C(NCC1CC1c1ccccc1)c1cccc(C(=N)NCC2CC2c2ccccc2)n1 (stereo not shown) [TCMDC-137456],3.28
6,CC(=O)c1ccc2nc[nH]c(=O)c2c1 [TCMDC-138172],6.38
7,CN1CCN(CCCNCc2ccccc2-c2cccc(CNCc3ccc4c(c3)OCO4)c2)CC1.O=C(O)C(F)(F)F [TCMDC-140476],0.92
8,CN(C)CCNCc1ccc(-c2ccc3c(Nc4ccc(Oc5ccccc5)cc4)ccnc3c2)o1 [TCMDC-138399],3.66
9,N=C(N)Nc1nc(-c2ccc(NCc3ccc(CNc4cccc(-c5csc(NC(=N)N)n5)c4)cc3)cc2)cs1 [TCMDC-140699],5.34
10,CCCOc1ccc(CCNCCCCNCCc2ccc(OCCC)c3ccccc23)c2ccccc12.CS(=O)(=O)O [TCMDC-137952],3.53
11,CC(C)(C)c1ccc(CNC(=O)/C=C/c2ccc(CNC3CCNCC3)cc2)cc1 [TCMDC-140773],4.94
12,COc1ccc2ccccc2c1CNCCCCCCNCc1c(OC)ccc2ccccc12.Cl [TCMDC-137915],5.99
13,CCOc1ccccc1CCNC(C)Cc1ccc(C(=O)Nc2ccc(CC(C)NCCc3cccc(Cl)c3)cc2)cc1 (stereo not shown) [TCMDC-139805],2.33
14,COc1cc2ccccc2c(OC)c1CCNCCCCNCCc1c(OC)cc2ccccc2c1OC.CS(=O)(=O)O [TCMDC-137842],3.36
15,CC(C)(C)c1ccc(CNCCOc2ccc(Nc3nnc(-c4ccc(-c5ncc[nH]5)cc4)o3)c3ccccc23)cc1.O=C(O)C(F)(F)F [TCMDC-138667],9.58
16,Cl.Clc1ccc(OCCC2CCN(CCCCCCCN3CCC(CCOc4ccc(Cl)c(Cl)c4)CC3)CC2)cc1Cl [TCMDC-138967],3.17
17,Cl.O=C(NCCCCN1CCC(c2ccc3c(c2O)CCCC3)CC1)c1ccc(NC(=O)c2ccc(Cl)cc2)cc1 [TCMDC-138645],2.55
